# Source: PubChem BioAssay AID901 (National Center for Advancing Translational Sciences (NCATS), 2007)
# Some of the results follow. These are further read-outs of the screen, such as a control signal, another cell line or another target. No call is given for them. The list favours compounds with an active or inconclusive main result. The note in brackets gives the kind of curve behind each potency; many fits are weak.
# Assay: qHTS Assay for Identifying the Cell-Membrane Permeable IMPase Inhibitors
# Details: CHO-M1 cells, IP1 accumulation, HTRF TR-FRET ratio; measured here: donor channel 620 nm AC50
row,SMILES,AC50
1,Cc1ccccc1CSCCNC(=O)c1ccc(Cl)c(S(=O)(=O)N2CCOCC2)c1,"251 nM [falling, full curve, poor fit]"
2,COc1cccc(C(=O)Nc2ncc3c(n2)CC(c2ccc(OC)cc2OC)CC3=O)c1 (stereo not drawn),"6310 nM [rising, partial curve]"
3,COc1cccc(-c2ccc(-c3noc(-c4ccccc4Br)n3)c(OC)n2)c1,"3160 nM [rising, single point]"
4,O=C1CCc2cc(S(=O)(=O)N3CCN(c4cccc(Cl)c4)CC3)ccc2N1,"251 nM [falling, full curve]"
5,CCOC(=O)CC(NC(=O)c1ccco1)c1ccc(C)cc1 (stereo not drawn),"316 nM [falling, full curve]"
6,CC(=O)NS(=O)(=O)c1cccnc1Nc1ccc(Cl)cc1,"7.94 nM [falling, full curve, poor fit]"
7,NC(=O)C1CCN(CC(=O)Nc2ccccc2Sc2ccc(Cl)cc2)CC1,"6310 nM [falling, single point]"
8,CCOc1ncccc1C(=O)OCC(=O)c1cccs1,"100 nM [falling, full curve, poor fit]"
9,COc1ccc(OC)c(S(=O)(=O)NCCc2ccccc2)c1,"501 nM [falling, partial curve, poor fit]"
10,Cc1cc(C)c2c3c(sc2n1)C(=O)N(C)CC(=O)N3,"10 nM [rising, full curve, poor fit]"
11,Cc1cc(NC(=O)C2CCCN(S(=O)(=O)c3ccc(Br)s3)C2)ccc1Br (stereo not drawn),"112 nM [falling, full curve, poor fit]"
12,COC(=O)[C@H](Cc1ccccc1)NC(=O)N1CC(C)OC(C)C1 (stereo partly drawn),"10000 nM [falling, partial curve, poor fit]"
13,O=c1oc2c3c4c(cc2c2c1CCC2)OCCN4CCC3,"5.01 nM [falling, full curve, poor fit]"
14,Cc1ccc(C(=O)OC2CCS(=O)(=O)c3sccc32)cc1 (stereo not drawn),"12.6 nM [rising, full curve, poor fit]"
15,Fc1ccc(CNC(=S)Nc2ccc(Cl)cc2Cl)cc1,"5010 nM [falling, full curve, poor fit]"
16,COc1ccc(/C=N\NC(=O)C2=NNC(=O)C2C)cc1 (stereo not drawn),"10000 nM [falling, single point]"
17,O=C(CCC1CC(=O)Nc2ccccc21)NCc1ccc(F)cc1 (stereo not drawn),"25.1 nM [rising, full curve]"
18,O=c1c([N+](=O)[O-])c(NC2CCCCC2)c2ccccc2n1-c1ccccc1,"10 nM [falling, full curve, poor fit]"

# Part of the list above in order of length of the SMILES, largest number first.
row,SMILES,AC50
3,COc1cccc(-c2ccc(-c3noc(-c4ccccc4Br)n3)c(OC)n2)c1,"3160 nM [rising, single point]"
6,CC(=O)NS(=O)(=O)c1cccnc1Nc1ccc(Cl)cc1,"7.94 nM [falling, full curve, poor fit]"
16,COc1ccc(/C=N\NC(=O)C2=NNC(=O)C2C)cc1 (stereo not drawn),"10000 nM [falling, single point]"
